Results are given in words; binding and its absence hold for the method and conditions named. Binding seen in cells or lysates may run through a third protein. Some binding calls cover weakened binding; strength is not graded here.

Amino acid sequences for entries named in this document (tags omitted).
UniProt O60260: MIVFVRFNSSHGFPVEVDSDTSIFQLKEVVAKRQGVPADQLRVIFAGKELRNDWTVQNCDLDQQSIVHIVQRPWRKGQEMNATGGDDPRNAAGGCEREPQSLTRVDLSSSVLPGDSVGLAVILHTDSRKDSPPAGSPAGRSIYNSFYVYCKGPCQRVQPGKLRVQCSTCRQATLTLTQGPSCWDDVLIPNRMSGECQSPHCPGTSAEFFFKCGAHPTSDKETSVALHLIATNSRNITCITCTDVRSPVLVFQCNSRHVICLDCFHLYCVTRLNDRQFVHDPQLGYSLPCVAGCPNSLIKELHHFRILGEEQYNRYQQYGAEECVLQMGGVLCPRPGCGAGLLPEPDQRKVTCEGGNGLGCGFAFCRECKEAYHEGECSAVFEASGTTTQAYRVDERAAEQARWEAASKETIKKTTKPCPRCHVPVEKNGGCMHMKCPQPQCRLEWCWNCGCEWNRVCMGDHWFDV
UniProt O08835: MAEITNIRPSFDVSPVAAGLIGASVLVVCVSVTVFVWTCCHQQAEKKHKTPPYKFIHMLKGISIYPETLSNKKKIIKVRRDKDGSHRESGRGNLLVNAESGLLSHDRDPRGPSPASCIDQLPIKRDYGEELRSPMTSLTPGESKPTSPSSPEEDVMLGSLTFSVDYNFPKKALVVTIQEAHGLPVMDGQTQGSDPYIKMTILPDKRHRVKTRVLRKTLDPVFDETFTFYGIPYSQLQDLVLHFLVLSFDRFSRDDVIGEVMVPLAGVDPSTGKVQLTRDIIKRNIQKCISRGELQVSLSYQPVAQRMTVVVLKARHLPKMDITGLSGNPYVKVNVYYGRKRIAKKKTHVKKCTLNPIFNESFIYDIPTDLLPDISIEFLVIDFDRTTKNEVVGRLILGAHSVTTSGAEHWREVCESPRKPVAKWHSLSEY

In this assay the target is YFP-parkin (UniProt O60260). The assay is described as follows: co-IP; YFP-parkin (or GFP) and Myc-Syt11 co-expressed in HEK293A cells; 10 uM MG132 for 12 h before lysis; lysate buffer 20 mM HEPES pH 7.4, 100 mM KCl, 2 mM EDTA, 1% NP40; IP with anti-GFP or anti-Myc and Protein G/A beads for 4 h at 4 °C; immunoblot.

Take “Myc-Syt11 (full-length rat synaptotagmin-11) (from UniProt O08835 1-430)”: the binding result is “binds”.

These data come from article PMC5758517.
